Patent EP2921176A2, “PHARMACEUTICAL COMPOSITION FOR TREATMENT OF PROSTATIC HYPERPLASIA” (priority 2012, dated 2014)

Assay: Mass of animals in the rat BPH model
Assay type: in vivo
Conditions: rats with BPH

| SMILES | Mass of animals, g At end of experiment (1 mg/kg/day in stomach for 18 days) [g] | Mass of animals, g At end of experiment (10 mg/kg/day in stomach for 18 days) [g] |
| --- | --- | --- |
| COc1cc2nc(N3CCN(C(=O)C4COc5ccccc5O4)CC3)nc(N)c2cc1OC (centres unmarked) [Doxazosin] | 311 ± 5 |  |
| CC(C)(C)NC(=O)[C@H]1CC[C@H]2[C@@H]3CC[C@H]4NC(=O)C=C[C@]4(C)[C@H]3CC[C@]12C [Finasteride] |  | 312 ± 9 |
